Measurements reported in patent US5594009A, “Fused pyrrolocarbazoles” (priority 1995, dated 1997).
At least one structure is not confirmed: it was looked up by name or label, or the drawing left a doubt.

Test system: lumbar motoneurons of chick embryos
Experiment: Inhibition of Motoneuron Death In Ovo
Assay type: in vivo
Settings: daily application to chorioallantoic membrane, E6 to E9

In the case of `O=C1NCc2c1c1c(c3[nH]c4ccc(C=Cc5ccccn5)cc4c23)Cc2ccccc2-1` [Compound I-32, 3-(2-Pyridinylethenyl)-5H,6H,12H,13H-indeno[2,3-a]pyrrolo[3,4-c]carbazole-7(7H)-one], the “number of surviving lumbar motoneurons / naturally occurring motoneuron death (in words)” value is reported as “dose-dependent increase in the number of surviving lumbar motoneurons”.
